Test results as given in PubChem BioAssay AID1487 (National Center for Advancing Translational Sciences (NCATS), 2009).
“And” between values parts separate entries of the source, which are not always exact repeats. Identical values can stand only once. Some of the results follow. Shown are side measurements of this screen, not its main read-out; they come without a call. Most of these compounds were active or inconclusive in the main read-out, so they are no random draw. Words in brackets tell the shape of the fitted curve; partial curves, single points and poor fits give uncertain potencies.

Assay: qHTS Assay for Modulators of Lamin A Splicing
Conditions: HeLa LMNA splicing GFP/RFP minigene ratio, 48 h
Outline: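 S3 HeLa cells stably expressing lamin A-EGFP splicing minigene plus DsRed2, 600 cells/well, 48 h compound exposure at 37C. Laser-scanning cytometry; analysed as GFP (500-530 nm)/RFP (575-640 nm) total intensity ratio; 0.5% DMSO vehicle.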

[1] = measured here: RFP viability control channel
[2] = measured here: GFP splicing reporter channel

Structure (SMILES)	AC50 [1]	AC50 [2]
CN(c1ccc(C(=O)NCc2cccnc2)cc1)S(C)(=O)=O	0.316 µM [falling, full curve, poor fit]	
COc1ccc(CNC(=O)c2cnc3sc(N4CCCCCC4)nn3c2=O)cc1	0.0112 µM [falling, full curve, poor fit]	
CC(=O)OCC(=O)c1c[nH]c2ccccc12	22.4 µM [falling, partial curve, poor fit]	
O=C(Oc1cccc(C(=S)N2CCOCC2)c1)c1cc([N+](=O)[O-])cc([N+](=O)[O-])c1		11.2 µM [falling, single point]
Cc1ccc(N/N=C(\Cc2nc3ccccc3[nH]2)c2ccccc2)cc1	5.62 µM [rising, single point]	
O=C(Nc1ccc(F)cc1)c1ccc(-n2cncn2)c([N+](=O)[O-])c1		17.8 µM [rising, single point]
COc1ccc(C)cc1NC(=O)CN1CCN(C/C=C/c2ccccc2)CC1	35.5 µM [rising, single point]	
CCOC(=O)c1nnn(-c2nonc2-n2cccc2)c1CCl	5.62 µM [rising, single point]	3.98 µM [rising, single point]
COc1ccc(NC(=O)NN2CCOCC2)cc1OC		39.8 µM [falling, partial curve, poor fit]
O=C(Nc1c(S(=O)(=O)c2ccc(Cl)cc2)csc1Br)c1ccccc1Cl	22.4 µM [falling, single point]	
O=S(=O)(Nc1cccc(C(F)(F)F)c1)c1ccc(-c2cnc(C3CC3)o2)cc1	1.26 µM [rising, partial curve]	12.6 µM [falling, partial curve, poor fit]
Cc1ccc(C)c2[nH]c(=O)c(CCNC(=O)c3ccco3)cc12	0.141 µM [rising, full curve]	0.447 µM [rising, partial curve]
CCc1nnc(NC(=O)CSc2nnc(CNc3ccc(OC)cc3)n2C)s1	0.141 µM [rising, full curve, poor fit]	22.4 µM [rising, single point]
CCN(CC)c1ccc(NC(=O)c2ccccc2)cc1S(=O)(=O)Nc1ccccc1OC	7.94 µM [rising, partial curve, poor fit]	
O=C(NNC(=S)NC(=O)c1ccccc1[N+](=O)[O-])c1ccccc1Cl	31.6 µM [rising, single point]	
CC(C)c1ccc(/C=C/C(=O)NCCCc2ccccc2)cc1	10 µM [rising, partial curve, poor fit]	
Cc1c(/C=N/Nc2ccc(F)cc2)c(O)n(C)c(=O)c1C#N		4.47 µM [falling, full curve, poor fit]
O=[N+]([O-])c1cc2oc3c(c2c(C=NCc2ccccc2)c1O)CCCC3		6.31 µM [falling, single point]
CC(C)N=C1NN=C(c2ccc(Cl)c(Cl)c2)CS1		0.794 µM [rising, full curve, poor fit]

Structure (SMILES)	AC50 [1]	AC50 [2]
COc1cccc(-c2nnc(SCC(=O)Nc3cc(C)on3)o2)c1	12.6 µM [rising, partial curve]	22.4 µM [rising, single point]
CN(c1ccc(OCC(=O)Nc2nc(-c3ccccc3)cs2)cc1)S(=O)(=O)c1ccc(F)cc1	12.6 µM [rising, partial curve]	
O=C(N/N=C/c1cc([N+](=O)[O-])ccc1O)C12CC3CC(CC(C3)C1)C2	3.16 µM [falling, single point]	
CN1CCCCc2c1nc1ccccc1c2N (tested in a mixture with another compound)	5.62 µM [falling, single point]	5.62 µM [falling, single point]
CCOC(=O)CN1N=C(/C=C/c2ccc(C(C)C)cc2)CCC1=O	14.1 µM [falling, single point]	
CC(C)n1c(SCCCc2ccccc2)nc2c1c(=O)[nH]c(=O)n2C	35.5 µM [rising, single point]	
Cc1ccc(NC(=O)/C(C#N)=C/c2ccc(C)s2)c(C)c1	35.5 µM [falling, partial curve, poor fit]	35.5 µM [falling, single point]
Fc1ccc(N/N=C/c2ccncc2)c(F)c1	10 µM [falling, partial curve]	12.6 µM [falling, partial curve, poor fit]
CC(=O)OC1c2c(ccc3ccc(=O)oc23)OC(C)(C)C1OC(=O)CC(C)C (centres undefined)	11.2 µM [rising, partial curve, poor fit]	15.8 µM [rising, single point] and 1.78 µM [rising, partial curve, poor fit]
CCOC(=O)c1sc(NC(=O)c2ccc(OC(C)=O)cc2)nc1C	2.51 µM [falling, partial curve, poor fit]	
COc1ccc(CNS(=O)(=O)NCc2ccc(C)cc2)cc1OC	7.08 µM [falling, partial curve, poor fit]	
Cc1ccc(Cn2ncc3c(N4CCN(Cc5ccc(Cl)cc5)CC4)ncnc32)cc1	3.55 µM [rising, full curve]	3.55 µM [rising, full curve]
COc1ccccc1CNS(=O)(=O)c1ccc(-c2cnc(C3CC3)o2)cc1	1.26 µM [rising, partial curve]	
Cc1cc2cc(CNC(=S)Nc3ccc(OC(F)F)cc3)ccc2n1C	25.1 µM [rising, single point]	
COc1ccc(Cc2nc(-c3ccc(NC(=O)c4cccnc4)cc3)no2)cc1	11.2 µM [rising, partial curve]	
O=C(c1cc(-c2cccs2)nc2ccccc12)N1CCN(c2ccccc2)CC1	6.31 µM [rising, partial curve]	
C=CCn1c(N2CCOCC2)nc2c1c(=O)[nH]c(=O)n2C		0.316 µM [rising, partial curve]
O=c1c2c3c(sc2nc2n1CCCCC2)CCCC3	31.6 µM [rising, single point]	35.5 µM [rising, single point]
CCc1ccc(C2=NN(CCC(=O)NCCc3ccc(OC)c(OC)c3)C(=O)CC2)cc1	0.00708 µM [falling, full curve, poor fit]	

Structure (SMILES)	AC50 [1]	AC50 [2]
O/N=C\c1cccn1-c1nccs1	5.62 µM [rising, single point]	
O=C(COC(=O)c1cc(=O)[nH]c2ccccc12)Nc1nc(-c2ccccc2)cs1		1.41 µM [rising, partial curve]
Cc1cccc(NC(=O)COC(=O)c2cccc3c2C(=O)c2ccccc2C3=O)c1C	35.5 µM [rising, single point]	25.1 µM [rising, single point]
Nc1c(C(=O)Nc2ccc(S(=O)(=O)N3CCCC3)cc2)sc2nc3ccc(OC(F)(F)F)cc3cc12	10 µM [falling, single point]	11.2 µM [falling, partial curve]
Cc1cc(C(=O)Nc2cc(C)n(Cc3ccc(Cl)cc3)n2)no1	35.5 µM [rising, single point]	35.5 µM [rising, single point]
COc1ccc2c(c1)-c1c(ssc1=S)C(C)(C)N2C(=O)CSC1=NCCS1	15.8 µM [rising, single point]	
CC(=O)N(c1ccc2oc(=O)sc2c1)S(=O)(=O)c1ccccc1	14.1 µM [rising, single point]	
c1ccc(Nc2nc(-c3cccs3)cs2)nc1	15.8 µM [rising, single point]	17.8 µM [rising, single point]
CCOc1ccc(CN=C(N)N=C(N)N)cc1Cl	11.2 µM [rising, single point]	7.94 µM [rising, partial curve, poor fit]
CC(=O)c1ccc(NC(=S)N(Cc2ccccc2)C(C)C2CC2)cc1 (centres undefined)	1.26 µM [falling, full curve, poor fit]	
COc1cc(C(=O)NC(c2ccc(Cl)cc2)c2cc(Cl)c3cccnc3c2O)cc(OC)c1OC (centres undefined)	22.4 µM [falling, partial curve]	
Cn1c(=O)c2c(-c3ccccc3)n(-n3cnnc3)cc2n(C)c1=O	12.6 µM [rising, single point]	
CCOC(=O)N1CCN(S(=O)(=O)c2ccc(C(=O)NNc3nc4ccc(Cl)cc4s3)cc2)CC1	5.62 µM [rising, single point]	2.82 µM [falling, single point]
CCCC(c1nnnn1CS(=O)(=O)c1ccc(C)cc1)N1CCN(CC)CC1 (centres undefined)		2 µM [falling, partial curve, poor fit]
Cc1cc(C)nc(NC(N)=NCCc2c[nH]c3ccccc23)n1		14.1 µM [falling, partial curve, poor fit]
CN1Cc2cccc3c2C(Cc2ccccc2S3)C1 (centres undefined)	15.8 µM [rising, partial curve]	8.91 µM [rising, partial curve, poor fit]
Cc1cccc(N2CCN(C(=O)CC(NC(=O)c3ccccc3)c3ccccc3)CC2C)c1 (centres undefined)	35.5 µM [rising, single point]	
Cc1c(C(=O)N2CCCCCC2)c(S(=O)(=O)N(Cc2ccccc2)C(C)(C)C)c(C)n1C	0.00447 µM [falling, full curve, poor fit]	
